Results are given in words; binding and its absence hold for the method and conditions named. Some results given as binding are weak or reduced against the parent protein; the word gives no strength.
What was measured:
[1] = biological target: T1, Mus musculus Elp3 (Mus musculus) (UniProt Q9CZX0); assay: co-purification (affinity chromatography and SEC); mouse and human subcomplexes co-expressed in insect cells; Elp123 by Twin-Strep-tag on Elp3 (StrepTrap), heparin, Superose 6; Elp456 by protein A on Elp6 (IgG Sepharose, TEV elution), Superose 6
T1 sequence: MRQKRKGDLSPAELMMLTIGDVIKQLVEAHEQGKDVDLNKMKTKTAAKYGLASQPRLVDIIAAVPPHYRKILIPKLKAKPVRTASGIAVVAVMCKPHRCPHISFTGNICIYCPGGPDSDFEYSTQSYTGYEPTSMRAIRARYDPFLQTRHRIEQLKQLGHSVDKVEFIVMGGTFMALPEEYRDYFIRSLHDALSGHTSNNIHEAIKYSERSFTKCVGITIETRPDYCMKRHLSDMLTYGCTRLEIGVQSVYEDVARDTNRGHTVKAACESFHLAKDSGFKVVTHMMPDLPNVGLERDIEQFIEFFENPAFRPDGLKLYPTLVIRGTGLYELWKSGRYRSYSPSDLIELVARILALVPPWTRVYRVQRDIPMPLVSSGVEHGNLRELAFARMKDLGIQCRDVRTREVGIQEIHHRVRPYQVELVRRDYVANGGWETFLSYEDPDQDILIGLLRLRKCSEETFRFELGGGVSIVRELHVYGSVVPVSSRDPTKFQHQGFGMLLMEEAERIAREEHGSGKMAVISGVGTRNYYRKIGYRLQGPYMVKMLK

[2] = biological target: T2, Mus musculus Elp1 (Mus musculus) (UniProt Q7TT37); assay: cryo-EM structure; MmElongator reconstituted from purified MmElp123 and MmElp456 and re-purified by gel filtration, 5.9 Å; both purified
T2 sequence: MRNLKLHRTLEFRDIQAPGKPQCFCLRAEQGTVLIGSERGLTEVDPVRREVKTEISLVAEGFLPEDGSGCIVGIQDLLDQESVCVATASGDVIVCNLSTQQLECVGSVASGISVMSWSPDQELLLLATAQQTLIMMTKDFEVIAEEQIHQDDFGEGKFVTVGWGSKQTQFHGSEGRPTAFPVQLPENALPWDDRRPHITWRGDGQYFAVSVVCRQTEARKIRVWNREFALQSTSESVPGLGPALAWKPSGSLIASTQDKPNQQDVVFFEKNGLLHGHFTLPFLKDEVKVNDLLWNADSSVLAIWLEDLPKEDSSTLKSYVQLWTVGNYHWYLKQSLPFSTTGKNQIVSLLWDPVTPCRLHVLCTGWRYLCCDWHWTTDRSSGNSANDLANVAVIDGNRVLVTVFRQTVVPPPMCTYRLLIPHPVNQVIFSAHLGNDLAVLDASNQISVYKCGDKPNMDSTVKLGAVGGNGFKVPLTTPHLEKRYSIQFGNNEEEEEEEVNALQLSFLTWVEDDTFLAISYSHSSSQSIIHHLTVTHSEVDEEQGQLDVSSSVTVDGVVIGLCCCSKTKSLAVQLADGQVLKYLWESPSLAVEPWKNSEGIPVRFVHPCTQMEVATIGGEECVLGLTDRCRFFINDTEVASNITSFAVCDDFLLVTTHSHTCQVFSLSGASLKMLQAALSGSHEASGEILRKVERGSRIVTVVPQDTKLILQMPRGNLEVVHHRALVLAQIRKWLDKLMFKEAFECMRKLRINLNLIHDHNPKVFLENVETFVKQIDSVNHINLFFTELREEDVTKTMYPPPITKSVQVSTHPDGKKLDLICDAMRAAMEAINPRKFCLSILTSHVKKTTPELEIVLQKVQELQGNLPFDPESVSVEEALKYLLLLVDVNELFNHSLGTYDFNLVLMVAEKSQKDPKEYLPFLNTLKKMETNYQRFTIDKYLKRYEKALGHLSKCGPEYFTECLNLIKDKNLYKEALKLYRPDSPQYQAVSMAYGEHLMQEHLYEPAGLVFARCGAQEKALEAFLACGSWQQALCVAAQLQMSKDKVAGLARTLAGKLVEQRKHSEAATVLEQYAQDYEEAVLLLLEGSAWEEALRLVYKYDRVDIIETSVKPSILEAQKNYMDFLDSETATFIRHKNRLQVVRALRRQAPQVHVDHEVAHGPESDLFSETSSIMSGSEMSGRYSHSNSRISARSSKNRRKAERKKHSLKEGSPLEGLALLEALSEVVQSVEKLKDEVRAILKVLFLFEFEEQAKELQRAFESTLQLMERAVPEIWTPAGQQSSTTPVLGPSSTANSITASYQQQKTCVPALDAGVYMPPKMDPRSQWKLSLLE

[3] = biological target: T1, Mus musculus Elp3 (Mus musculus); assay: as above
[4] = biological target: T3, Mus musculus Elp6 (Mus musculus) (UniProt Q8BK75); assay: co-purification (affinity chromatography and SEC); mouse and human subcomplexes co-expressed in insect cells; Elp123 by Twin-Strep-tag on Elp3 (StrepTrap), heparin, Superose 6; Elp456 by protein A on Elp6 (IgG Sepharose, TEV elution), Superose 6
T3 sequence: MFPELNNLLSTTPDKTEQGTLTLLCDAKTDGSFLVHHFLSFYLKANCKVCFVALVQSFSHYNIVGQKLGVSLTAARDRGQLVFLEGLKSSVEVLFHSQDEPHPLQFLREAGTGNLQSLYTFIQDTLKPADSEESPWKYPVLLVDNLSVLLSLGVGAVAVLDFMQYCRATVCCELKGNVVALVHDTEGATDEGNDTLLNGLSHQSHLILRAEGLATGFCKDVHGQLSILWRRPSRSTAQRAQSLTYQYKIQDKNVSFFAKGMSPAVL

[5] = biological target: T4, Homo sapiens Elp6 (Homo sapiens) (UniProt Q0PNE2); assay: as above
T4 sequence: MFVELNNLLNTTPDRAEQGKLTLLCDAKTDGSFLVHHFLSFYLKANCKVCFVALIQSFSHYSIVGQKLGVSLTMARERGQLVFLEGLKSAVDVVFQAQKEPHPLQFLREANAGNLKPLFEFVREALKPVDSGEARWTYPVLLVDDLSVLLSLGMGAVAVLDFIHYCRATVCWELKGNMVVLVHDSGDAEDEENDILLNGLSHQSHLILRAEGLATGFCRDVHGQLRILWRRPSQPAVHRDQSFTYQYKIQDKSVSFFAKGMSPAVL

B1: Mus musculus Elp1 (protein, UniProt Q7TT37 1-1333)
chain: MRNLKLHRTLEFRDIQAPGKPQCFCLRAEQGTVLIGSERGLTEVDPVRREVKTEISLVAEGFLPEDGSGCIVGIQDLLDQESVCVATASGDVIVCNLSTQQLECVGSVASGISVMSWSPDQELLLLATAQQTLIMMTKDFEVIAEEQIHQDDFGEGKFVTVGWGSKQTQFHGSEGRPTAFPVQLPENALPWDDRRPHITWRGDGQYFAVSVVCRQTEARKIRVWNREFALQSTSESVPGLGPALAWKPSGSLIASTQDKPNQQDVVFFEKNGLLHGHFTLPFLKDEVKVNDLLWNADSSVLAIWLEDLPKEDSSTLKSYVQLWTVGNYHWYLKQSLPFSTTGKNQIVSLLWDPVTPCRLHVLCTGWRYLCCDWHWTTDRSSGNSANDLANVAVIDGNRVLVTVFRQTVVPPPMCTYRLLIPHPVNQVIFSAHLGNDLAVLDASNQISVYKCGDKPNMDSTVKLGAVGGNGFKVPLTTPHLEKRYSIQFGNNEEEEEEEVNALQLSFLTWVEDDTFLAISYSHSSSQSIIHHLTVTHSEVDEEQGQLDVSSSVTVDGVVIGLCCCSKTKSLAVQLADGQVLKYLWESPSLAVEPWKNSEGIPVRFVHPCTQMEVATIGGEECVLGLTDRCRFFINDTEVASNITSFAVCDDFLLVTTHSHTCQVFSLSGASLKMLQAALSGSHEASGEILRKVERGSRIVTVVPQDTKLILQMPRGNLEVVHHRALVLAQIRKWLDKLMFKEAFECMRKLRINLNLIHDHNPKVFLENVETFVKQIDSVNHINLFFTELREEDVTKTMYPPPITKSVQVSTHPDGKKLDLICDAMRAAMEAINPRKFCLSILTSHVKKTTPELEIVLQKVQELQGNLPFDPESVSVEEALKYLLLLVDVNELFNHSLGTYDFNLVLMVAEKSQKDPKEYLPFLNTLKKMETNYQRFTIDKYLKRYEKALGHLSKCGPEYFTECLNLIKDKNLYKEALKLYRPDSPQYQAVSMAYGEHLMQEHLYEPAGLVFARCGAQEKALEAFLACGSWQQALCVAAQLQMSKDKVAGLARTLAGKLVEQRKHSEAATVLEQYAQDYEEAVLLLLEGSAWEEALRLVYKYDRVDIIETSVKPSILEAQKNYMDFLDSETATFIRHKNRLQVVRALRRQAPQVHVDHEVAHGPESDLFSETSSIMSGSEMSGRYSHSNSRISARSSKNRRKAERKKHSLKEGSPLEGLALLEALSEVVQSVEKLKDEVRAILKVLFLFEFEEQAKELQRAFESTLQLMERAVPEIWTPAGQQSSTTPVLGPSSTANSITASYQQQKTCVPALDAGVYMPPKMDPRSQWKLSLLE
[1]
  binding: binds

B2: Mus musculus Elp4 (protein, UniProt Q9ER73 1-422)
chain: MAAADTCGAGTLSSRSVASEAGQGGTSSFQRKGKASGGPGGGPRLLSIAGTRPSVRNGQLLVSTGLPALDQLLGGGLAVGTLLLIEEDKYNIYSPLLFKYFMAEGIINGHTLLVASAKENPAKILQELPAPLLDDNSKKELEDVHSAKTPEPNVNMKIAWRYQLQPKMEVGPVSSSRFGHYYDLSKRIPWELLQSSKWHGFFLPEHISPDLKGESCFLSCGYMRLLEFIQKSVYAEGFDGANPQKKQKNILRIGIQNLGSPLWGDDICCKENCDNNHRLTKFLYILRGLLRSSLSACIITMPAHLVQNKSITTRVRNLSDTVVGLESFIGSERETNPLYKDYHGLIHIRKIPRLNNLTCDESDVKDLAFKLKRKLFTIERLHLPPDLSDTVGRSSKQDLAASTARLGAGCSSMAEGKKHLDF
[2]
  binding: binds
[3]
  binding: binds
[4]
  binding: binds

B3: Mus musculus Elp5 (protein, UniProt Q99L85 1-300)
chain: MLDSLLAIGGLVLLRDSVEWEGRSLLKALIKKSALRGEQVHVLGCEVSEEEFREGFDSDVNSRLVYHDLFRDPLNWSKPGEAVPEGPLKALRSMCKRTDHGSVTIALDSLSWLLCHIPCVTLCQALHALSQQNGDPGDNSLVEQVRVLGLLHEELHGPGSMGALNTLAHTEVTLSGKVDQTSASILCRRPQQRATYQTWWFSVLPDFSLTLHEGLPLRSELHPDHHTTQVDPTAHLTFNLHLSKKEREARDSLTLPFQFSSEKQKALLHPVPSRTTGHIFYEPDAFDDVDPEDPDDDLDI
[2]
  binding: binds
[4]
  binding: binds

B4: Homo sapiens Elp4 (protein, UniProt Q96EB1 1-424)
chain: MAAVATCGSVAASTGSAVATASKSNVTSFQRRGPRASVTNDSGPRLVSIAGTRPSVRNGQLLVSTGLPALDQLLGGGLAVGTVLLIEEDKYNIYSPLLFKYFLAEGIVNGHTLLVASAKEDPANILQELPAPLLDDKCKKEFDEDVYNHKTPESNIKMKIAWRYQLLPKMEIGPVSSSRFGHYYDASKRMPQELIEASNWHGFFLPEKISSTLKVEPCSLTPGYTKLLQFIQNIIYEEGFDGSNPQKKQRNILRIGIQNLGSPLWGDDICCAENGGNSHSLTKFLYVLRGLLRTSLSACIITMPTHLIQNKAIIARVTTLSDVVVGLESFIGSERETNPLYKDYHGLIHIRQIPRLNNLICDESDVKDLAFKLKRKLFTIERLHLPPDLSDTVSRSSKMDLAESAKRLGPGCGMMAGGKKHLDF
[5]
  binding: binds

B5: Homo sapiens Elp5 (protein, UniProt Q8TE02 1-300)
chain: MLDSLLALGGLVLLRDSVEWEGRSLLKALVKKSALCGEQVHILGCEVSEEEFREGFDSDINNRLVYHDFFRDPLNWSKTEEAFPGGPLGALRAMCKRTDPVPVTIALDSLSWLLLRLPCTTLCQVLHAVSHQDSCPGDSSSVGKVSVLGLLHEELHGPGPVGALSSLAQTEVTLGGTMGQASAHILCRRPRQRPTDQTQWFSILPDFSLDLQEGPSVESQPYSDPHIPPVDPTTHLTFNLHLSKKEREARDSLILPFQFSSEKQQALLRPRPGQATSHIFYEPDAYDDLDQEDPDDDLDI
[5]
  binding: binds

B6: Mus musculus Elp6 (protein, UniProt Q8BK75 1-266)
chain: MFPELNNLLSTTPDKTEQGTLTLLCDAKTDGSFLVHHFLSFYLKANCKVCFVALVQSFSHYNIVGQKLGVSLTAARDRGQLVFLEGLKSSVEVLFHSQDEPHPLQFLREAGTGNLQSLYTFIQDTLKPADSEESPWKYPVLLVDNLSVLLSLGVGAVAVLDFMQYCRATVCCELKGNVVALVHDTEGATDEGNDTLLNGLSHQSHLILRAEGLATGFCKDVHGQLSILWRRPSRSTAQRAQSLTYQYKIQDKNVSFFAKGMSPAVL
[3]
  binding: binds
